Measurements as given in article PMC7565148.
Results are given in words; binding and its absence hold for the method and conditions named. In cells and extracts the contact can be indirect. Sequences can lack the tags named with a protein.

Biological target: T1, glutathione S-transferase (GST)–WARS1 fusion protein (not stated (human or mouse cDNA cloned)) (UniProt P32921)
T1 sequence: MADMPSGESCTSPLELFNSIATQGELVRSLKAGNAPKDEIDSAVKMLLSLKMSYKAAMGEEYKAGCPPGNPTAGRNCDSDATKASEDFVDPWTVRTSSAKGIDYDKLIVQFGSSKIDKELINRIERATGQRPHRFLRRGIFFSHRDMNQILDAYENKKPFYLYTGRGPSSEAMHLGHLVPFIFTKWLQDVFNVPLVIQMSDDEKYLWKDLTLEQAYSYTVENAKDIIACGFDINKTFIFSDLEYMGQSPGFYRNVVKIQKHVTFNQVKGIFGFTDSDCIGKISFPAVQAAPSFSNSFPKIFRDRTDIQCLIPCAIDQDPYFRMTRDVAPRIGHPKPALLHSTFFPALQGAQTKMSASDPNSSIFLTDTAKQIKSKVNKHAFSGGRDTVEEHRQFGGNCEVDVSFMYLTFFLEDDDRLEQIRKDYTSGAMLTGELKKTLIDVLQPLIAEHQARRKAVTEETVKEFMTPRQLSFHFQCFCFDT
Test: pull-down; J774.1 total cell lysates incubated with GST or GST-WARS1 for 2 h at 4 °C in cell lysis buffer; washed four times with lysis buffer; bound protein detected by immunoblot with an anti-TREM-1 antibody; only the target purified

B1: triggering receptor expressed on myeloid cells (TREM)-1 (receptor, UniProt Q9JKE2 21-230)
chain: AIVLEEERYDLVEGQTLTVKCPFNIMKYANSQKAWQRLPDGKEPLTLVVTQRPFTRPSEVHMGKFTLKHDPSEAMLQVQMTDLQVTDSGLYRCVIYHPPNDPVVLFHPVRLVVTKGSSDVFTPVIIPITRLTERPILITTKYSPSDTTTTRSLPKPTAVVSSPGLGVTIINGTDADSVSTSSVTISVICGLLSKSLVFIILFIVTKRTFG
  binding: no binding
